# Results deposited as PubChem BioAssay AID720505 (Drosophila RNAi Screening Center, 2013)
# Purpose: 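Knock-downs that reduce calcium influx once internal stores are emptied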 (primary screen)
# Cell system: Drosophila S2R+ cells
# Reagent: long dsRNA against Drosophila genes
# Challenge: thapsigargin (2 µM) in calcium-free buffer to empty internal stores, then 2 mM calcium added back
# Measured: 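Fluo-4 signal in 384-well plates read on a FLIPR after thapsigargin (2 µM, calcium-free) store depletion and 2 mM calcium add-back; unnormalised mean endpoint per well; screen run twice, selected wells retested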
# Scale: calcium signal and retest calcium signal: higher = more calcium entry after store depletion
# Call rule: 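Knock-downs counted as hits when calcium entry dropped relative to STIM1 positive and Rho1 negative controls present on each plate; roughly 1500 genes called, with reductions of differing size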
# Calls: active = called as lowering calcium entry; inactive = not called
# The deposit covers about 20,000 reagents; below is an unselected part of those that have a named target and a result. In the full data, about 2,100 (10%) got an active call. 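Raw plate signals without normalisation; calls rest on control-based scores that were not deposited; replicate 2 separates called from uncalled poorly.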 Reagents against one gene are numbered here. The record does not give: the amount of reagent, the time to read-out.
predicted target,reagent,"calcium signal, replicate 1","calcium signal, replicate 2","retest calcium signal, replicate 1","retest calcium signal, replicate 2",outcome
dsf (GeneID 33823),1,133,121,,,inactive
CG31709 (GeneID 261620),1,122,95.1,,,inactive
CG1812 (GeneID 33049),1,146,144,,,inactive
CG31388 (GeneID 41355),1,82,125,,,inactive
hng2 (GeneID 41056),1,136,147,,,inactive
SP (GeneID 39494),1,84.2,112,,,inactive
CG5892 (GeneID 42522),1,169,81.9,,,inactive
CG43260 (retired record) (GeneID 12798173),1,110,85.5,,,inactive
Diap2 (GeneID 36748),1,126,132,,,inactive
CG12680 (GeneID 31427),1,265,126,,,inactive
CG4597 (GeneID 38604),1,111,97.2,,,inactive
wap (GeneID 33131),1,144,110,,,inactive
CG1674 (GeneID 43780),1,,,,,inactive
CG1674 (GeneID 43780),2,138,133,,,inactive
Eip63F-1 (GeneID 47878),1,78.2,120,,,inactive
Adss (GeneID 42466),1,201,340,,,inactive
tud (GeneID 37417),1,70.8,96.5,,,inactive
HERC2 (GeneID 33035),1,119,125,,,inactive
CG17738 (GeneID 41490),1,53.5,105,,,active
CG12851 (GeneID 37993),1,59.8,119,,,active
CG14313 (GeneID 42176),1,323,179,,,inactive
Mtch (GeneID 38026),1,133,143,,,inactive
CG15034 (GeneID 31670),1,274,101,,,inactive
promL (GeneID 38372),1,73.9,89,,,active
CG30192 (GeneID 246510),1,92.4,6139,,,inactive
CG17154 (GeneID 39373),1,83.1,98.8,,,inactive

Records above whose gene name starts with D or d (2):
predicted target,reagent,"calcium signal, replicate 1","calcium signal, replicate 2","retest calcium signal, replicate 1","retest calcium signal, replicate 2",outcome
dsf (GeneID 33823),1,133,121,,,inactive
Diap2 (GeneID 36748),1,126,132,,,inactive

More records follow:
predicted target,reagent,"calcium signal, replicate 1","calcium signal, replicate 2","retest calcium signal, replicate 1","retest calcium signal, replicate 2",outcome
Atg12 (GeneID 39383),1,43.7,97.6,,,active
Acyp2 (GeneID 41910),1,114,160,,,inactive
CG7551 (GeneID 39280),1,92.9,89.7,,,inactive
Actbeta (GeneID 43826),1,105,89.1,,,active
CG5498 (GeneID 40250),1,115,116,,,inactive
Alp8 (GeneID 37540),1,41.7,181,,,inactive
Eig71Ec (GeneID 39703),1,97,130,,,inactive
CG13177 (GeneID 5740215),1,99.3,194,,,inactive
hyx (GeneID 41086),1,114,121,,,inactive
CG31674 (GeneID 318878),1,165,117,,,inactive
CG7512 (GeneID 39289),1,96.9,95.5,,,inactive
lectin-37Db (GeneID 3346221),1,138,89.3,,,inactive
et (GeneID 32975),1,182,81.8,,,inactive
wde (GeneID 36133),1,152,110,,,inactive
CG30048 (GeneID 246415),1,82.6,243,,,inactive
CG13794 (GeneID 34048),1,121,102,,,inactive
CG14860 (GeneID 41803),1,112,174,,,inactive
Sr-CI (GeneID 33621),1,82.7,159,,,inactive
Naa15-16 (GeneID 32934),1,137,163,162,180,inactive
Naa15-16 (GeneID 32934),2,87.8,120,,,inactive
Roe1 (GeneID 36508),1,164,161,,,inactive
CG11878 (GeneID 43050),1,215,138,,,inactive
CG16756 (GeneID 31460),1,61.9,84.7,,,active
SF1 (GeneID 43912),1,136,188,,,inactive
slp2 (GeneID 33608),1,185,76.2,,,inactive
E(spl)m4-BFM (GeneID 43157),1,294,118,,,inactive
CG17292 (GeneID 34152),1,87,202,,,inactive
adp (GeneID 37073),1,165,88.6,,,inactive
rad50 (GeneID 37564),1,140,81.8,,,inactive
CG1143 (GeneID 38329),1,102,149,,,inactive
